Common to all, as to test: split reporter
Test [1] concerns the target T1, SnRK2.3-nLUC (Arabidopsis thaliana) (UniProt Q39193).
T1 sequence: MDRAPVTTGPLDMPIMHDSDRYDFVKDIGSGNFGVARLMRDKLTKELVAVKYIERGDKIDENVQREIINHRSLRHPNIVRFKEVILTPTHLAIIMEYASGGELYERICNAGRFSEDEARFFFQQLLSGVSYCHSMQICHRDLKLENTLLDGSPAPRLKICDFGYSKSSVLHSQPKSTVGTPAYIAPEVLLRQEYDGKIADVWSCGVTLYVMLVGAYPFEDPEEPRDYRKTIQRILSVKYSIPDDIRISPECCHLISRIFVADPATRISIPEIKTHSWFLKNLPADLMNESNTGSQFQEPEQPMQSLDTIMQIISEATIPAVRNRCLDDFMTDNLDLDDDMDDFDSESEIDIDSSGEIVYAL

The target of test [2] is T2, SnRK2.10-nLUC (Arabidopsis thaliana) (UniProt Q9C958).
T2 sequence: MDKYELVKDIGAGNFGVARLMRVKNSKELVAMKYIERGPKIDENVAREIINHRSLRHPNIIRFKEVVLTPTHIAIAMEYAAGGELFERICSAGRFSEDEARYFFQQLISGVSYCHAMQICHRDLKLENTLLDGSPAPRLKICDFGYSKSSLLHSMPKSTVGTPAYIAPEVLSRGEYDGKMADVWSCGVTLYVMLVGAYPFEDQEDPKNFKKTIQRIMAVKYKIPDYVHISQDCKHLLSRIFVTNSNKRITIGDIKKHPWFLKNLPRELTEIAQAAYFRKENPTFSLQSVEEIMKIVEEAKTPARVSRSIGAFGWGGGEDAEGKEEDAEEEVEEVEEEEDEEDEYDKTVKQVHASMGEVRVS

Test [3] concerns the target T3, SnRK2.9-nLUC (Arabidopsis thaliana) (UniProt O64812).
T3 sequence: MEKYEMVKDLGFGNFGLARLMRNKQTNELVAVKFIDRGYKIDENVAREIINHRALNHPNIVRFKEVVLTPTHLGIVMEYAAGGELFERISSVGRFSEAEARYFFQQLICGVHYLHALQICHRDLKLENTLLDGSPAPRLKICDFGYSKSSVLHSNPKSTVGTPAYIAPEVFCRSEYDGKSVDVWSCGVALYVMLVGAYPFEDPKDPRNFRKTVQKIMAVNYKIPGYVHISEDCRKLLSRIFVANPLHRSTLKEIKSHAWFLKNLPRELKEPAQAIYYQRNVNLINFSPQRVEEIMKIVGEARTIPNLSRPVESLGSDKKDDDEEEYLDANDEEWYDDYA

For test [4], the target named is T4, SnRK2.8-nLUC (Arabidopsis thaliana) (UniProt Q9M9E9).
T4 sequence: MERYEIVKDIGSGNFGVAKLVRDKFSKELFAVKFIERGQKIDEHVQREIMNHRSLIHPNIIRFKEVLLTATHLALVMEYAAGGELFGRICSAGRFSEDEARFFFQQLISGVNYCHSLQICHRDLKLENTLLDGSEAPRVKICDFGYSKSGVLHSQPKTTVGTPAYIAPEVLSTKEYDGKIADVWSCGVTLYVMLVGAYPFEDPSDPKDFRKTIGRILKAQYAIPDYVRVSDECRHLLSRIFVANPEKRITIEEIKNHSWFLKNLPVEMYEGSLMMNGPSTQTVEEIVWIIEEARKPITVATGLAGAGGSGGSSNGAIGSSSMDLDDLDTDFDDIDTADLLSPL

In test [5] the target is T5, SnRK2.7-nLUC (Arabidopsis thaliana) (UniProt Q9SMQ4).
T5 sequence: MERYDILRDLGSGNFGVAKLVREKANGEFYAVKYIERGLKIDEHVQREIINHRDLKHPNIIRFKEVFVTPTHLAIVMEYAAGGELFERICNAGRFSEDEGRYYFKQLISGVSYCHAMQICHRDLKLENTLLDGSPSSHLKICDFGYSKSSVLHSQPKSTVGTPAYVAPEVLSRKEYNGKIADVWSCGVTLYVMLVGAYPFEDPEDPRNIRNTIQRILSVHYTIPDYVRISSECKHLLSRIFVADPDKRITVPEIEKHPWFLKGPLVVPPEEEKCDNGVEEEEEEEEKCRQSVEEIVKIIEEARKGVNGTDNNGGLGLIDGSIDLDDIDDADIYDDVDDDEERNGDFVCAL

In test [6] the target is T6, SnRK2.2-nLUC (Arabidopsis thaliana) (UniProt Q39192).
T6 sequence: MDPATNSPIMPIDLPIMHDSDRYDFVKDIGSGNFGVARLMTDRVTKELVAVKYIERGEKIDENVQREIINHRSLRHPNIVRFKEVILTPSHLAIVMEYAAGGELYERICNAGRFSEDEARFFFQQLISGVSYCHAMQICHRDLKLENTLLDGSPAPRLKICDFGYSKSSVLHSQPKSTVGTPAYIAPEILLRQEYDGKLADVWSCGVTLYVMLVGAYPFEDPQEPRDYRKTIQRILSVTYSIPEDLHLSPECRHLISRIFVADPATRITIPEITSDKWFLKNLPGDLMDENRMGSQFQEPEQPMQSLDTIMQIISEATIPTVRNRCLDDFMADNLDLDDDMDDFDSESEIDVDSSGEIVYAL

Results are given in words; binding and its absence hold for the method and conditions named. In cells and extracts the contact can be indirect. Some binding calls cover weakened binding; strength is not graded here. Where a sequence is shown, tags or fusion partners need not be part of it.

B1: SIZ1-cLUC (enzyme, UniProt Q680Q4-3 1-873)
chain: MDLEANCKEKLSYFRIKELKDVLTQLGLSKQGKKQELVDRILTLLSDEQAARLLSKKNTVAKEAVAKLVDDTYRKMQVSGASDLASKGQVSSDTSNLKVKGEPEDPFQPEIKVRCVCGNSLETDSMIQCEDPRCHVWQHVGCVILPDKPMDGNPPLPESFYCEICRLTRADPFWVTVAHPLSPVRLTATTIPNDGASTMQSVERTFQITRADKDLLAKPEYDVQAWCMLLNDKVLFRMQWPQYADLQVNGVPVRAINRPGGQLLGVNGRDDGPIITSCIRDGVNRISLSGGDVRIFCFGVRLVKRRTLQQVLNLIPEEGKGETFEDALARVRRCIGGGGGDDNADSDSDIEVVADFFGVNLRCPMSGSRIKVAGRFLPCVHMGCFDLDVFVELNQRSRKWQCPICLKNYSVEHVIVDPYFNRITSKMKHCDEEVTEIEVKPDGSWRVKFKRESERRELGELSQWHAPDGSLCPSAVDIKRKMEMLPVKQEGYSDGPAPLKLGIRKNRNGIWEVSKPNTNGLSSSNRQEKVGYQEKNIIPMSSSATGSGRDGDDASVNQDAIGTFDFVANGMELDSISMNVDSGYNFPDRNQSGEGGNNEVIVLSDSDDENDLVITPGPAYSGCQTDGGLTFPLNPPGIINSYNEDPHSIAGGSSGLGLFNDDDEFDTPLWSFPSETPEAPGFQLFRSDADVSGGLVGLHHHSPLNCSPEINGGYTMAPETSMASVPVVPGSTGRSEANDGLVDNPLAFGRDDPSLQIFLPTKPDASAQSGFKNQADMSNGLRSEDWISLRLGDSASGNHGDPATTNGINSSHQMSTREGSMDTTTETASLLLGMNDSRQDKAKKQRSDNPFSFPRQKRSVRPRMYLSIDSDSE
B1: the binding result in test [1] is listed as “binds weakly”; in test [2] it was “binds”; in test [3], “binds weakly”; in test [4] it was “binds”; in test [5] it was “binds”; in test [6], “binds weakly”.

The values above are taken from paper doi:10.1101/2023.04.25.538284 (bioRxiv, 2023).
